Measurements: PMC12752550
Results are given in words; binding and its absence hold for the method and conditions named. In cells and extracts the contact can be indirect. Some binding calls cover weakened binding; strength is not graded here.

The chains behind the UniProt entries cited, without tags or fusion partners. Where a name states a change or a piece, a line headed by the entry shows the natural chain unless it says otherwise. A line that says so, or that is headed by a name, gives the form on record, which may keep a tag or linker. Residues count along the entry.
UniProt O43791: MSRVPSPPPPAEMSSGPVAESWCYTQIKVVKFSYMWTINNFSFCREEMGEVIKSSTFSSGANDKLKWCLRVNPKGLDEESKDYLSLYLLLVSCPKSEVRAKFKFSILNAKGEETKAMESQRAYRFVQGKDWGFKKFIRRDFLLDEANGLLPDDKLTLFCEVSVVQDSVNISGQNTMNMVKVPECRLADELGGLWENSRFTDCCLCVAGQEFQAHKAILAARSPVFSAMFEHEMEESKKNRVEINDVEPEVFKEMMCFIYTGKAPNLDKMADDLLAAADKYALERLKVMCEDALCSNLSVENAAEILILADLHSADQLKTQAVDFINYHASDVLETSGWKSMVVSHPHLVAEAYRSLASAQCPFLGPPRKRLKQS
Flag-tagged N-terminal SPOP with a MATH domain (aa 1-170): residues 1-170 of O43791
Flag-tagged C-terminal SPOP with a BTB domain (aa 171-374): residues 171-374 of O43791
UniProt Q15672: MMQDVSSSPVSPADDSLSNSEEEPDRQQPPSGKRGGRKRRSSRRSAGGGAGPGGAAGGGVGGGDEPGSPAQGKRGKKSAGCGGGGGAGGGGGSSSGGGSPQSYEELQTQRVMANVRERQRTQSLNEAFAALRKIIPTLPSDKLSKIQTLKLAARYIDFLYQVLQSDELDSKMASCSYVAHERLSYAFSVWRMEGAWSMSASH

Tests used:
[1] = molecular target: Flag-tagged C-terminal SPOP with a BTB domain (aa 171-374) (UniProt O43791); assay: co-IP; anti-Flag co-IP from MCF-7 cells transfected with Flag-tagged full-length, N-terminal (aa 1-170) or C-terminal (aa 171-374) SPOP; Twist1 detected by western blotting
[2] = molecular target: Flag-tagged N-terminal SPOP with a MATH domain (aa 1-170) (UniProt O43791); assay: as above
[3] = molecular target: E3 ubiquitin ligase SPOP (human (endogenous in MCF-7)) (UniProt O43791); assay: co-IP; lysates of 1 × 10^7 MCF-7 cells, 5 µg of SPOP or Twist1 antibody overnight at 4 °C, Protein A/G magnetic beads 4 h at 4 °C, western blotting; endogenous proteins; also in cells transfected with the circLRBA overexpression plasmid (fewer Twist1 precipitated by anti-SPOP than in control cells)

Substance: Twist1 (from UniProt Q15672 1-202)
- binding [1]: no binding
- binding [2]: binds
- binding [3]: binds
